PubChem BioAssay AID743121 – NCATS | 2013

- Test: 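Genes whose silencing strengthens cell killing by camptothecin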 (primary screen)
- System: MDA-MB-231 cells, a human breast cancer line
- Reagent: single siRNA against human genes, 20 nM siRNA (0.8 pmol per well)
- Time to read-out: 120 h (drug added 48 h after transfection, read 72 h later)
- Challenge: camptothecin 20 nM (about EC30) for 72 h; vehicle 0.1% DMSO in parallel plates
- Measurement: 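Cell viability by ATP luminescence (CellTiter-Glo) as % of non-targeting siRNA wells, and the log2 ratio of viability without drug over viability with camptothecin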
- Reading the numbers: log2 vehicle/camptothecin viability: higher = stronger sensitisation to camptothecin
- Rule for the call: 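Each gene scored by redundant siRNA activity (RSA) over its individual siRNA ratios; a gene is called active at p < 0.001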
Here is one part, drawn at random, of about 26,000 deposited reagents. 167 of them (0.63%) were called active. 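Calls are per gene from RSA p-values that are not deposited; an individual active-marked siRNA can sensitise only weakly.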 Reagents against one gene are numbered here. Not all columns of the deposit are shown. No sequences are given here.

target	reagent no.	log2 vehicle/camptothecin viability	call
LCOR	1	-0.0478	inactive
LCOR	2	-0.218	inactive
LCOR	3	-0.193	inactive
LCOR	4	0.357	inactive
TRIM24	1	-0.0445	inactive
TRIM24	2	0.194	inactive
TRIM24	3	-0.148	inactive
TRIM24	4	-0.27	inactive
TRIM24	5	-0.0274	inactive
TRIM24	6	-0.818	inactive
OR2D2	1	-0.162	inactive
OR2D2	2	0.257	inactive
OR2D2	3	-0.0706	inactive
OR2D2	4	0.0913	inactive
PHKG1	1	-0.119	inactive
PHKG1	2	-0.0192	inactive
PHKG1	3	-0.162	inactive
PHKG1	4	0.359	inactive
RAB30	1	0.426	inactive
RAB30	2	-0.131	inactive
RAB30	3	-0.72	inactive
TAT	1	-0.204	inactive
TAT	2	-0.458	inactive
TAT	3	-0.2	inactive
TAT	4	-0.324	inactive
LMLN	1	0.244	inactive
LMLN	2	-0.139	inactive
LMLN	3	0.138	inactive
LMLN	4	0.0102	inactive
GPR146	1	-0.527	inactive
GPR146	2	-0.707	inactive
GPR146	3	-0.603	inactive
GPR146	4	-0.112	inactive
ULBP2	1	-0.392	inactive
ULBP2	2	-0.278	inactive
ULBP2	3	-0.386	inactive
ULBP2	4	-0.334	inactive
ULBP2	5	-0.407	inactive
ULBP2	6	-0.204	inactive
ULBP2	7	-0.0971	inactive
PCBD1	1	-0.283	inactive
PCBD1	2	0.108	inactive
PCBD1	3	-0.211	inactive
PCBD1	4	0.252	inactive
KIF2A	1	-0.146	inactive
KIF2A	2	-0.211	inactive
KIF2A	3	-0.103	inactive
KIF2A	4	0.0191	inactive
CASP4	1	-0.269	inactive
CASP4	2	-0.139	inactive
CASP4	3	-1.14	inactive
CASP4	4	-0.409	inactive
CTNNBIP1	1	-0.144	inactive
CTNNBIP1	2	0.076	inactive
CTNNBIP1	3	-0.246	inactive
CTNNBIP1	4	0.174	inactive
PSMA5	1	-0.526	inactive
PSMA5	2	-0.412	inactive
PSMA5	3	-0.363	inactive
PSMA5	4	0.742	inactive
ASAH1	1	-0.0976	inactive
ASAH1	2	-0.307	inactive
ASAH1	3	-0.445	inactive
ASAH1	4	-0.0783	inactive
JAK2	1	-0.368	inactive
JAK2	2	-0.483	inactive
JAK2	3	0.898	inactive
JAK2	4	0.151	inactive
ENSA	1	-0.0311	inactive
ENSA	2	-0.186	inactive
ENSA	3	-0.393	inactive
ENSA	4	-0.374	inactive
TMPRSS2	1	-0.293	inactive
TMPRSS2	2	0.148	inactive
TMPRSS2	3	-0.0991	inactive
TMPRSS2	4	-0.716	inactive
LOC390282	1	-0.129	inactive
LOC390282	2	-0.0703	inactive
LOC390282	3	-0.46	inactive
CXCL8	1	-0.112	inactive
CXCL8	2	0.0284	inactive
CXCL8	3	-0.499	inactive
PIP4K2A	1	0.981	inactive
PIP4K2A	2	-0.357	inactive
PIP4K2A	3	-0.4	inactive
PIP4K2A	4	-0.264	inactive
CCL4	1	-0.137	inactive
CCL4	2	-0.263	inactive
CCL4	3	-0.239	inactive
CCL4	4	0.193	inactive
CCL4	5	-0.15	inactive
CCL4	6	-0.477	inactive

Ordered by “log2 vehicle/camptothecin viability” (low to high): some entries from above.
target	reagent no.	log2 vehicle/camptothecin viability	call
CASP4	1	-0.269	inactive
PCBD1	3	-0.211	inactive
KIF2A	2	-0.211	inactive
KIF2A	1	-0.146	inactive
CASP4	2	-0.139	inactive
KIF2A	3	-0.103	inactive
KIF2A	4	0.0191	inactive
PCBD1	4	0.252	inactive
